# Measurements as given in paper PMC8185089.
# Protein sequences, listed by entry. Tags and fused reporters are not part of them. Lines headed by an entry give the natural chain unless they say otherwise; changes in a name come on top.
# UniProt Q9LZ25: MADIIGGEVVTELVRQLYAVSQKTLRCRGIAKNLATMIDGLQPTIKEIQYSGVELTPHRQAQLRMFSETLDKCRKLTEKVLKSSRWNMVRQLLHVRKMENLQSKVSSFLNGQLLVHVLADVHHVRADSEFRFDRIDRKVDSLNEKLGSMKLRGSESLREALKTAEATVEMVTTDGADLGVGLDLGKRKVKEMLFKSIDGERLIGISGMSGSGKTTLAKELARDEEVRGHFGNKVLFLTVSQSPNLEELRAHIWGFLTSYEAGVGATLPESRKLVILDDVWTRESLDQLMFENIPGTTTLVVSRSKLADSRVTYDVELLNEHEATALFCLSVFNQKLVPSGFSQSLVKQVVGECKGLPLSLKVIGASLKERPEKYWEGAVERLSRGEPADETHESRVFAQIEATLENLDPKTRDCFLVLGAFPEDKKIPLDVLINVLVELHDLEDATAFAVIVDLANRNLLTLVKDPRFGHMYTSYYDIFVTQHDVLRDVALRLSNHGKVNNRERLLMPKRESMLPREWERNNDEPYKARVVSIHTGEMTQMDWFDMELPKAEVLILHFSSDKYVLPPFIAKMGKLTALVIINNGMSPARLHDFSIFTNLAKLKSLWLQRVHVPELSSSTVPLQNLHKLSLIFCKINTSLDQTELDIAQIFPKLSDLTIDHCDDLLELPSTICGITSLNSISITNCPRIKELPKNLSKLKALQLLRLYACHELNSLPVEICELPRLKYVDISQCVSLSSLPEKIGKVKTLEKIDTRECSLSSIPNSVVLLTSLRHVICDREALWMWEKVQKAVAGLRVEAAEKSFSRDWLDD
# Results are given in words; binding and its absence hold for the method and conditions named. Binding seen in cells or lysates may run through a third protein. Sequences can lack the tags named with a protein.
# B1: EDS1-3xFLAG (EDS1-FLAG) (protein, UniProt Q9SU72 1-623)
# chain: MAFEALTGINGDLITRSWSASKQAYLTERYHKEEAGAVVIFAFQPSFSEKDFFDPDNKSSFGEIKLNRVQFPCMRKIGKGDVATVNEAFLKNLEAIIDPRTSFQASVEMAVRSRKQIVFTGHSSGGATAILATVWYLEKYFIRNPNVYLEPRCVTFGAPLVGDSIFSHALGREKWSRFFVNFVSRFDIVPRIMLARKASVEETLPHVLAQLDPRKSSVQESEQRITEFYTRVMRDTSTVANQAVCELTGSAEAFLETLSSFLELSPYRPAGTFVFSTEKRLVAVNNSDAILQMLFYTSQASDEQEWSLIPFRSIRDHHSYEELVQSMGKKLFNHLDGENSIESTLNDLGVSTRGRQYVQAALEEEKKRVENQKKIIQVIEQERFLKKLAWIEDEYKPKCQAHKNGYYDSFKVSNEENDFKANVKRAELAGVFDEVLGLMKKCQLPDEFEGDIDWIKLATRYRRLVEPLDIANYHRHLKNEDTGPYMKRGRPTRYIYAQRGYEHYILKPNGMIAEDVFWNKVNGLNLGLQLEEIQETLKNSGSECGSCFWAEVEELKGKPYEEVEVRVKTLEGMLGEWITDGEVDDKEIFLEGSTFRKWWITLPKNHKSHSPLRDYMMDEITDT
# Molecular target: ADR1-L2-StrepII-3xHA (ADR1-L2-SH) (Arabidopsis thaliana) (UniProt Q9LZ25)
# Test: co-IP; anti-HA affinity matrix IP of the HA-tagged RNL from N. benthamiana epss leaf extracts, anti-FLAG blot; the RNL co-expressed with EDS1-FLAG (or variant) and SAG101-FLAG by Agrobacteria for 48 h, then Pf0-1 XopQ (OD600 0.3), samples at 8-12 hpi; 100 mM Tris-HCl pH 7.5, 300 mM NaCl, 5 mM MgCl2, 0.5% NP-40, 4 °C
binder,measurement,value
B1,binding,no binding
